# Several values for one entry are separate records, joined by “and”; a condition that tells them apart may be missing. Equal entries are not always repeated. The list shows a part of the results. For some assays here: The exact form of the protein is not confirmed.
# Columns and labels:
# Assay in all cases: protein microarray (ProtoArray v5.0), streptavidin-Alexa Fluor 647
# Conditions in all cases: 3'-biotin; 20 mM Tris (pH 7.5), 5 mM MgCl2, 100 mM KCl, 0.1% Tween-20, A/T-rich and random oligonucleotide blockers; temperature not stated; high values mean tight binding
# CCT8 (human) = system: CCT8 (human)
# CD209 = target: T1, CD209 (UniProt Q9NNX6)
# T1 sequence: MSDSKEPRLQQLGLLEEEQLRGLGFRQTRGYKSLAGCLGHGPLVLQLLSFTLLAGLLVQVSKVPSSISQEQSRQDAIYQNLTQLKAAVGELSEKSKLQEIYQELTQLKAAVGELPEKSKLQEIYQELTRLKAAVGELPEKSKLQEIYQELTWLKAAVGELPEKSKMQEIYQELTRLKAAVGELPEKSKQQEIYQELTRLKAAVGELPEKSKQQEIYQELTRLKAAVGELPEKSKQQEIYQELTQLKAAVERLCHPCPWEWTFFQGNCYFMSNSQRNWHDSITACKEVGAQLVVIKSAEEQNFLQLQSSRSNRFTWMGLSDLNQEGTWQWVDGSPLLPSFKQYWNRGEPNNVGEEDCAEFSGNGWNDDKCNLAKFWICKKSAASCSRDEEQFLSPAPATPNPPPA
# CD24 (human) = system: CD24 (human)
# CD244 (human) = system: CD244 (human)
# CD300LF = target: T2, CD300LF (UniProt Q8TDQ1)
# T2 sequence: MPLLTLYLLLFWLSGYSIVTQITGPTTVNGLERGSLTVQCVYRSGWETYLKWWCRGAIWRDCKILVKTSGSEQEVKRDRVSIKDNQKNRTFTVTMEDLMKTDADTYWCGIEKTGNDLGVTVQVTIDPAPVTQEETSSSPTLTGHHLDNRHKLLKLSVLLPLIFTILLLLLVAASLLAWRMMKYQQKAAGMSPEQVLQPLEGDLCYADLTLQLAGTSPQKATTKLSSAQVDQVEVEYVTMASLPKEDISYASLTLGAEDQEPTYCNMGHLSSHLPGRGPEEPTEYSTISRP
# CD3D (human) = system: CD3D (human)
# CD40 (human) = system: CD40 (human)
# CD44 antigen (human) = system: CD44 antigen (human)
# CD74 (human) = system: CD74 (human)
# CD9 (human) = system: CD9 (human)
# CD99L2 (human) = system: CD99L2 (human)
# CDADC1 = target: T3, CDADC1 (UniProt Q9BWV3)
# T3 sequence: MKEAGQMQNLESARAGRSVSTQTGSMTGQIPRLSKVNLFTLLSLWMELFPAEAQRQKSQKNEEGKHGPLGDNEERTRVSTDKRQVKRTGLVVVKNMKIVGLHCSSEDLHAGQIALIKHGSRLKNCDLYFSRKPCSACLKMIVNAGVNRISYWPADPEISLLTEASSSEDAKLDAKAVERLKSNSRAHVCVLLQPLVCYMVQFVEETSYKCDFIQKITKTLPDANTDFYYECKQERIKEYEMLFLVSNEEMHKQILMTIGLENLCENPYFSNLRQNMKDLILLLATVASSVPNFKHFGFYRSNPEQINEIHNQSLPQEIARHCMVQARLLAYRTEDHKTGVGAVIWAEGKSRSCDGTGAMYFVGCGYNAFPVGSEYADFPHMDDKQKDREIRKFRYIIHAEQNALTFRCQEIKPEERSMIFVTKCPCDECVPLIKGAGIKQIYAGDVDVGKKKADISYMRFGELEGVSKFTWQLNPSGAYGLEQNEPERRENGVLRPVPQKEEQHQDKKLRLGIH
# CDC123 (human) = system: CDC123 (human)
# CDC23 (human) = system: CDC23 (human)
# CDC2L5 (human) = system: CDC2L5 (human)
# CDC37 (human) = system: CDC37 (human)
# CDC42 (human) = system: CDC42 (human)
# CDCA4 (human) = system: CDCA4 (human)
# CDCA7L (human) = system: CDCA7L (human)
# CDIPT (human) = system: CDIPT (human)
sequence,measurement,setting,value
GGGAGGCTGAGGCAGG [G4-1 biotinylated (PQS2)],binding signal,CCT8 (human),-0.35 z-score and -0.312 z-score
same,binding signal,CD209,-0.354 z-score
same,binding signal,CD24 (human),-0.278 z-score
same,binding signal,CD244 (human),-0.335 z-score
same,binding signal,CD300LF,-0.3 z-score
same,binding signal,CD3D (human),-0.316 z-score
same,binding signal,CD40 (human),-0.322 z-score
same,binding signal,CD44 antigen (human),-0.331 z-score
same,binding signal,CD74 (human),-0.352 z-score
same,binding signal,CD9 (human),-0.349 z-score
same,binding signal,CD99L2 (human),-0.312 z-score
same,binding signal,CDADC1,-0.331 z-score
same,binding signal,CDC123 (human),-0.359 z-score
same,binding signal,CDC23 (human),-0.327 z-score
same,binding signal,CDC2L5 (human),-0.3 z-score
same,binding signal,CDC37 (human),-0.339 z-score
same,binding signal,CDC42 (human),-0.334 z-score
same,binding signal,CDCA4 (human),-0.333 z-score and -0.35 z-score
same,binding signal,CDCA7L (human),-0.295 z-score
same,binding signal,CDIPT (human),-0.297 z-score

# Taken from the listing for reference:
sequence,measurement,setting,value
GGGAGGCTGAGGCAGG [G4-1 biotinylated (PQS2)],binding signal,CD40 (human),-0.322 z-score
same,binding signal,CD44 antigen (human),-0.331 z-score

# From article PMC5996148
